Consider 2 compounds from publication PMC11053683, “Tuning of the Anti-Breast Cancer Activity of Betulinic Acid via Its Conversion to Ionic Liquids” (Pharmaceutics, 2024).

This data set concerns MCF-7 cells. The experiment in a line: DSC of treated MCF-7 cells (thermodynamic behavior). In kind it is cell-based, human. The settings on record: MCF-7 treated 72 h at IC50 concentration.

In the case of `C=C(C)[C@@H]1CC[C@]2(C(=O)O)CC[C@]3(C)[C@H](CC[C@@H]4[C@@]5(C)CC[C@H](O)C(C)(C)[C@@H]5CC[C@]43C)[C@@H]12` [BA, Betulinic acid], the “downshift of main LT transition (T1) compared to the control” value is “more than 1 °C” and the “downshift of shoulder Sh1 with respect to the control cells” value is 6 °C.
With `C=C(C)C1CCC2(C(=O)O)CCC3(C)C(CCC4C5(C)CCC(O)C(C)(C)C5CCC43C)C12.C=C(C)C1CCC2(C(=O)O)CCC3(C)C(CCC4C5(C)CCC(O)C(C)(C)C5CCC43C)C12.CCOC(=O)C(N)CCCCN` (stereo not drawn) [[LysOEt][BA]2], the “downshift of shoulder Sh1 with respect to the control cells” value is 6 °C.
